Laboratory results reported in US7198651B2, “Method of effecting a reversible color change of dyed hair” (Kao Corporation, priority 2003, dated 2007).

Test: Example II: dyeing of white goat hair, then colour change with acidic gel (pH 3) and alkaline cream
Conditions: for Delta E Colour Change: vs. original dyed colour
Experimental: The dye mixture can be applied to undamaged white goat hair at 50° C. for 15 min. or 30° C. for 30 min. Approximately 1 g of formulation A is used per gram of hair. After the completion of the dyeing time, the tresses may be rinsed with water, shampoo washed and then dried. The colour of the tresses can then be recorded. […] All of the dyes have the formula I, but only dyes within a certain pKa range are capable of reversible colour change of hair in which the hair changes to a second colour by treatment with the acidic formulation defined in Table 2. The dyeing solutions each had the following compositions: [table] The dye solution is applied in a 1:1 weight ratio to untreated white goat hair at 30° C. for 20 min. After this time, the tresses are shampoo rinsed, dried and the colour measured. The tresses were then run through the following protocol: • a. Acidic Gel (see Table 2a below) was applied in a ratio of 1 g per 1 g of hair tress for 1 min. • b. The hair tress was rinsed with water and dried, and the colour and delta E vs. the original dyed colour was then measured. • c. An alkaline cream (see Table 2b below) was applied in a ratio of 1 g per 1 g of the hair tress for 1 min. • d. The hair tress was rinsed and dried, and the colour and delta E vs. the original dyed colour was then measured. [table] [table]

[1] = Acid Solution (acidic gel pH 3, 1 min)
[2] = Alkali Solution (alkaline cream, 1 min) after acid
[3] = Dyed, 0.2% dye, pH 10, 30° C. 20 min

Row | Compound | L [1] | a [1] | b [1] | Delta E Colour Change [1] | L [2] | a [2] | b [2] | Delta E Colour Change [2] | L [3] | a [3] | b [3]
1 | CC(=O)Nc1cc(/N=N/c2nncs2)ccc1O [Dye 1] | 51 | 56 | 32 | 14 | 47 | 60 | 21 | 1 | 46 | 60 | 20
2 | O=C(Nc1cc(/N=N/c2nc(-c3ccccc3)no2)c2ccccc2c1O)c1ccncc1 [Dye 2] | 50 | 35 | 10 | 26 | 38 | 49 | −7 | 2 | 36 | 50 | −6
3 | CS(=O)(=O)c1ccc(/N=N/c2ccc(O)c3ccccc23)c(C#N)c1 [Dye 3] | 29 | 11 | 15 | 34 | 20 | 12 | −17 | 1 | 19 | 16 | −17
4 | CC(=O)Nc1cc(/N=N/c2ccc(S(C)(=O)=O)cc2C#N)c2ccccc2c1O [Dye 4] | 68 | −1 | 23 | 36 | 59 | −9 | −9 | 2 | 57 | −9 | −10
5 | CSc1nnc(/N=N/c2ccc(O)c(NC(C)=O)c2)s1 [Dye 5] | 46 | 45 | 20 | 23 | 37 | 52 | −1 | 1 | 36 | 52 | 0
6 | CC(=O)Nc1cc(/N=N/c2nc3ccccc3s2)ccc1O [Dye 6] | 53 | 21 | 20 | 24 | 44 | 32 | −3 | 1 | 44 | 32 | −2
7 | Oc1ccc(/N=N/c2nc3ccccc3s2)cc1Cl [Dye 7] | 43 | 57 | 25 | 14 | 38 | 55 | 15 | 2 | 36 | 55 | 14
8 | CCSc1nnc(N=Nc2ccc(O)c3cccc(NS(C)(=O)=O)c23)s1 [Dye 8] | 52 | 27 | −1 | 14 | 45 | 12 | −35 | 3 | 44 | 12 | −37
9 | CS(=O)(=O)Nc1cccc2c(O)ccc(N=Nc3nc4ccccc4s3)c12 [Dye 9] | 30 | 27 | −1 | 35 | 25 | 12 | −30 | 3 | 23 | 12 | −32
10 | CS(=O)(=O)Nc1cccc2c(O)ccc(/N=N/c3snc4ccc(S(N)(=O)=O)cc34)c12 [Dye 10] | 49 | −18 | −12 | 15 | 54 | −31 | −5 | 2 | 52 | −31 | −5
11 | CCC(=O)Nc1cc(N=Nc2snc3ccc(S(N)(=O)=O)cc23)cc(Cl)c1O [Dye 12] | 44 | −2 | −1 | 30 | 41 | 7 | −27 | 3 | 39 | 7 | −29
12 | NS(=O)(=O)c1ccc2nsc(N=Nc3cc(Cl)c(O)cc3Cl)c2c1 [Dye 13] | 32 | 11 | −14 | 17 | 33 | 20 | −27 | 2 | 31 | 20 | −28
13 | COCCOc1ccc(N=NC2C(=O)N(c3ccccc3)N=C2C(N)=O)cc1S(N)(=O)=O (stereo not drawn) [Dye 21] | 79 | 3 | 61 | 10 | 84 | −4 | 58 | 1 | 84 | −5 | 57
14 | CCSc1nnc(/N=N/c2c(C(C)(C)C)nn3nc(C)[nH]c23)s1 [Dye 22] | 79 | 2 | 89 | 11 | 77 | 10 | 85 | 2 | 77 | 12 | 85
15 | N#CC(/N=N/c1ccc(S(N)(=O)=O)cc1)C(=O)c1ccccc1 (stereo not drawn) [Dye 23] | 81 | −8 | 41 | 12 | 81 | −10 | 53 | 1 | 80 | −10 | 53
16 | Cc1nn2nc(C(C)(C)C)c(/N=N/c3cc(Cl)c(S(N)(=O)=O)cc3Cl)c2[nH]1 [Dye 24] | 81 | −2 | 64 | 12 | 78 | 8 | 67 | 2 | 77 | 9 | 68
17 | CCSc1nsc(/N=N/c2cc(Cl)c(O)c(NC(=O)CC)c2)n1 [Dye 25, reference compound] | 41 | 52 | −16 | 1 | 41 | 51 | −17 | 1 | 40 | 51 | −17
18 | CCSc1nsc(/N=N/c2cc(Cl)c(O)cc2Cl)n1 [Dye 26, reference compound] | 27 | 51 | 12 | 1 | 28 | 50 | 11 | 1 | 27 | 50 | 11
19 | CC(=O)Nc1cc(/N=N/c2snc3ccc(S(N)(=O)=O)cc23)c(Cl)c(Cl)c1O [Dye 27, reference compound] | 32 | 8 | −29 | 3 | 34 | 10 | −31 | 2 | 32 | 10 | −31
20 | CCC(=O)Nc1cc(/N=N/c2nccs2)cc(Cl)c1O [Dye 28, reference compound] | 27 | 43 | 13 | 1 | 29 | 43 | 13 | 1 | 28 | 43 | 13
21 | CCC(=O)Nc1cc(/N=N/c2nc(C)ns2)cc(Cl)c1O [Dye 29, reference compound] | 26 | 52 | −3 | 2 | 26 | 51 | −3 | 1 | 26 | 50 | −2
22 | Cc1nsc(/N=N/c2cc(Cl)c(O)cc2Cl)n1 [Dye 30, reference compound] | 32 | 55 | 22 | 2 | 34 | 56 | 21 | 1 | 33 | 57 | 21
23 | Cc1nsc(/N=N/c2ccc(O)c(Cl)c2)n1 [Dye 31, reference compound] | 36 | 53 | 24 | 2 | 37 | 53 | 23 | 1 | 36 | 54 | 22
24 | CC(=O)Nc1cc(N=Nc2nc(C)ns2)ccc1O [Dye 32, reference compound] | 36 | 62 | −1 | 1 | 37 | 62 | −2 | 1 | 36 | 62 | −2
